Values from PubChem BioAssay AID686938 (Drosophila RNAi Screening Center, 2013).
In all, the deposit lists about 23,000 reagents; this is an unselected part of those with a known target gene and a result. Over the whole deposit, 75 (0.33%) got an active call. 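Raw plate signals without normalisation; calls rest on plate z-scores that were not deposited; ratio present for only 364 wells.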 A plus sign joins genes that one reagent is predicted to hit. The record does not give: the dose of the treatment.

Screen: 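Fly genes required for calcium entry once internal stores are emptied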 (primary screen)
Cells: Drosophila S2R+ cells
Reagent: long dsRNA against Drosophila genes, about 0.25 µg dsRNA per well, roughly 10,000 cells
Time to read-out: 5 days of knock-down before the calcium assay
Conditions: thapsigargin (SERCA pump blocker) to empty calcium stores; entry signal taken 4 min after adding it
Measured: 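Duplicate raw fluo-4 intensities per well from a plate reader, at rest and four minutes after thapsigargin emptied calcium stores; entry-to-rest ratio filled for only some wells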
Direction: calcium entry signal: higher = stronger calcium signal after store depletion; resting calcium signal: higher = higher resting calcium signal
Units: calcium entry signal in fluorescence units; resting calcium signal in fluorescence units
Active means: 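Called when the plate z-score of the entry-to-rest ratio, mean of duplicates, falls below −3; wells with low overall dye signal (Fmax z below −2) or more than five off-targets excluded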
Meaning of the calls: active = strongly reduced calcium entry; inactive = no strong reduction

Ufsp2 [DRSC10231]
- calcium entry signal, replicate 1: 4.01e7
- calcium entry signal, replicate 2: 4.17e7
- resting calcium signal, replicate 1: 1.97e7
- resting calcium signal, replicate 2: 3.05e7
- Outcome: inactive

Bmcp [DRSC10808]
- calcium entry signal, replicate 1: 3.97e7
- calcium entry signal, replicate 2: 3.18e7
- resting calcium signal, replicate 1: 2.93e7
- resting calcium signal, replicate 2: 1.37e7
- Outcome: inactive

CG13404 [DRSC19536]
- calcium entry signal, replicate 1: 2.80e7
- calcium entry signal, replicate 2: 2.84e7
- resting calcium signal, replicate 1: 1.46e7
- resting calcium signal, replicate 2: 1.16e7
- Outcome: inactive

ems [DRSC16941]
- calcium entry signal, replicate 1: 3.72e7
- calcium entry signal, replicate 2: 4.56e7
- resting calcium signal, replicate 1: 1.92e7
- resting calcium signal, replicate 2: 7.82e7
- Outcome: inactive

asRNA:CR31144 + RpL3 [DRSC16834]
- calcium entry signal, replicate 1: 1.09e7
- calcium entry signal, replicate 2: 1.34e7
- resting calcium signal, replicate 1: 8.55e6
- resting calcium signal, replicate 2: 9.70e6
- Outcome: inactive

CG7191 [DRSC03022]
- calcium entry signal, replicate 1: 2.20e7
- calcium entry signal, replicate 2: 3.42e7
- resting calcium signal, replicate 1: 1.06e7
- resting calcium signal, replicate 2: 1.48e7
- Outcome: inactive

CG4615 [DRSC17491]
- calcium entry signal, replicate 1: 3.31e7
- calcium entry signal, replicate 2: 2.44e7
- resting calcium signal, replicate 1: 1.56e7
- resting calcium signal, replicate 2: 1.11e7
- Outcome: inactive

CG4615 [DRSC18376]
- calcium entry signal, replicate 1: 2.39e7
- calcium entry signal, replicate 2: 2.42e7
- resting calcium signal, replicate 1: 1.34e7
- resting calcium signal, replicate 2: 1.36e7
- Outcome: inactive

eIF3d2 [DRSC15651]
- calcium entry signal, replicate 1: 4.22e7
- calcium entry signal, replicate 2: 5.58e7
- resting calcium signal, replicate 1: 1.69e7
- resting calcium signal, replicate 2: 2.24e7
- Outcome: inactive

CheB98a [DRSC14882]
- calcium entry signal, replicate 1: 3.80e7
- calcium entry signal, replicate 2: 5.59e7
- resting calcium signal, replicate 1: 1.96e7
- resting calcium signal, replicate 2: 2.30e7
- Outcome: inactive

An excerpt from above, showing only “resting calcium signal, replicate 1”.
CG13404 [DRSC19536]	1.46e7
ems [DRSC16941]	1.92e7
asRNA:CR31144 + RpL3 [DRSC16834]	8.55e6

Additional entries follow:
Cpr56F [DRSC07326]
- calcium entry signal, replicate 1: 5.22e7
- calcium entry signal, replicate 2: 5.72e7
- resting calcium signal, replicate 1: 2.32e7
- resting calcium signal, replicate 2: 2.68e7
- Outcome: inactive

CG31819 [DRSC01532]
- calcium entry signal, replicate 1: 3.74e7
- calcium entry signal, replicate 2: 3.48e7
- resting calcium signal, replicate 1: 1.95e7
- resting calcium signal, replicate 2: 1.84e7
- Outcome: inactive

CG14511 [DRSC14863]
- calcium entry signal, replicate 1: 2.53e7
- calcium entry signal, replicate 2: 2.96e7
- resting calcium signal, replicate 1: 1.45e7
- resting calcium signal, replicate 2: 1.37e7
- Outcome: inactive

CG42819 [DRSC02264]
- calcium entry signal, replicate 1: 3.22e7
- calcium entry signal, replicate 2: 4.84e7
- resting calcium signal, replicate 1: 1.56e7
- resting calcium signal, replicate 2: 1.92e7
- Outcome: inactive

qtc [DRSC02364]
- calcium entry signal, replicate 1: 4.17e7
- resting calcium signal, replicate 1: 1.79e7
- Outcome: inactive

qtc [DRSC02365]
- calcium entry signal, replicate 1: 4.03e7
- calcium entry signal, replicate 2: 3.32e7
- resting calcium signal, replicate 1: 1.99e7
- resting calcium signal, replicate 2: 1.69e7
- Outcome: inactive

CG8837 [DRSC00711]
- calcium entry signal, replicate 1: 2.96e7
- calcium entry signal, replicate 2: 2.88e7
- resting calcium signal, replicate 1: 1.41e7
- resting calcium signal, replicate 2: 1.43e7
- Outcome: inactive

CG32112 [DRSC09815]
- calcium entry signal, replicate 1: 2.15e7
- calcium entry signal, replicate 2: 4.01e7
- resting calcium signal, replicate 1: 1.20e7
- resting calcium signal, replicate 2: 1.76e7
- Outcome: inactive

Dgat2 [DRSC06803]
- calcium entry signal, replicate 1: 3.96e7
- calcium entry signal, replicate 2: 2.80e7
- resting calcium signal, replicate 1: 1.68e7
- resting calcium signal, replicate 2: 1.38e7
- Outcome: inactive

CG14708 [DRSC14930]
- calcium entry signal, replicate 1: 3.96e7
- calcium entry signal, replicate 2: 4.26e7
- resting calcium signal, replicate 1: 1.84e7
- resting calcium signal, replicate 2: 1.89e7
- Outcome: inactive

CG12795 [DRSC00354]
- calcium entry signal, replicate 1: 3.12e7
- calcium entry signal, replicate 2: 3.04e7
- resting calcium signal, replicate 1: 1.60e7
- resting calcium signal, replicate 2: 1.48e7
- Outcome: inactive
